Experimental data published in article PMC9251878.
No constants are given. Whether binding was seen depends on the method and setting. Binding seen in cells or lysates may run through a third protein. Some binding calls cover weakened binding; strength is not graded here.

Chains of the proteins cited; added tags and fusions are not shown. Lines headed by an entry give the natural chain unless they say otherwise; changes in a name come on top. A line that says so, or that is headed by a name, gives the form on record, which may keep a tag or linker. Residues count along the entry.
UniProt Q8IW41: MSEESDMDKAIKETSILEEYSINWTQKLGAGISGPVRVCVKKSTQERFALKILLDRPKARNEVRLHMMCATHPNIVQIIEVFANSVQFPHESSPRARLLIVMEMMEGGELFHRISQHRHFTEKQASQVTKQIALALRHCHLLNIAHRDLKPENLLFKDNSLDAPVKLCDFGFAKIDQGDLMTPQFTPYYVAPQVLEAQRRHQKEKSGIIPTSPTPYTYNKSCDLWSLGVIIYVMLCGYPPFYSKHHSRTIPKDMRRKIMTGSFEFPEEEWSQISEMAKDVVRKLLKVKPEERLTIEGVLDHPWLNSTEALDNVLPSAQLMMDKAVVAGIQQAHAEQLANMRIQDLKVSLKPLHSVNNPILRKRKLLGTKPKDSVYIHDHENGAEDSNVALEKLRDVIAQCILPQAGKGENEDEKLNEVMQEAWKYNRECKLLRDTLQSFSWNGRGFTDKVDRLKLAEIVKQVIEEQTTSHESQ
UniProt Q9UKI8: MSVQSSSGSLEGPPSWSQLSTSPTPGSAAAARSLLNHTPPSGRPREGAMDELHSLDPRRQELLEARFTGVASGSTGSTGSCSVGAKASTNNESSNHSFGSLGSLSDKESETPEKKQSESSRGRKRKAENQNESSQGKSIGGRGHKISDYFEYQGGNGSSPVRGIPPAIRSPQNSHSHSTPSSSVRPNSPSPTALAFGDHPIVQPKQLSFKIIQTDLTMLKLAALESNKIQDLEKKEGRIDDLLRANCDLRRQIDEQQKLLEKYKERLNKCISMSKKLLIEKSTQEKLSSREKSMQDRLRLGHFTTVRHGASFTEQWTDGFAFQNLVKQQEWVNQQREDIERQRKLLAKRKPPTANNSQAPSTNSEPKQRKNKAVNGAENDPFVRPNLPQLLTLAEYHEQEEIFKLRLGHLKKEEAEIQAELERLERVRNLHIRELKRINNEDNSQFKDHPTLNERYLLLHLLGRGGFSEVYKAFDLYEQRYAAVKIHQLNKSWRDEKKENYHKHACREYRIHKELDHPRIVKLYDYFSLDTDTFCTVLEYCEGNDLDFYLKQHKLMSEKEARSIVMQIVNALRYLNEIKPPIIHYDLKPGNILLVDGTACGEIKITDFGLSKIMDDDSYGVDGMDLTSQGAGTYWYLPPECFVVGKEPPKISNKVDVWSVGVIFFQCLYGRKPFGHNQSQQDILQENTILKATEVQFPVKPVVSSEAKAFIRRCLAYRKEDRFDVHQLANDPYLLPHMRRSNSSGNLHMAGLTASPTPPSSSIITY
recombinant full‐length his‐tagged TLK1B: residues 218-766 of Q9UKI8

Experiments:
[1] = biological target: eGFP‐MK5 (from pEGFP‐MK5‐C1), overexpressed in HEK 293 cells (UniProt Q8IW41); test: co-IP; 200 µg lysate of HEK 293 cells overexpressing GFP-MK5; GFP-specific antibody 4 h on ice, protein A/G agarose overnight at 4 °C; blotted for MK5 and TLK1
[2] = biological target: recombinant full‐length his‐tagged TLK1B (human) (UniProt Q9UKI8); test: pull-down; His pull-down: 20 µg purified His-tagged TLK1B added to 400 µg lysate (1X RIPA) of GFP-MK5-overexpressing HEK 293 cells, on ice 30 min, Ni2+-NTA agarose; western blot; only the target purified
[3] = biological target: purified recombinant GST‐tagged MK5 (Sino Biological, cat# 13655‐H20B) (human) (UniProt Q8IW41); test: pull-down; GST pull-down: 20 µg purified GST-tagged MK5 added to 400 µg lysate (1X RIPA) of HEK 293 cells co-expressing GFP-MK5 and TLK1, on ice 30 min, glutathione agarose; western blot; only the target purified
[4] = biological target: tousled‐like kinase 1 (TLK1), endogenous in LNCaP cells (human (endogenous in LNCaP)) (UniProt Q9UKI8); test: co-IP; 200 µg LNCaP cell lysate, endogenous proteins; TLK1-specific antibody 4 h on ice, protein A/G agarose overnight at 4 °C; blotted for TLK1 and MK5

| Substance | binding [1] | binding [2] | binding [3] | binding [4] |
| --- | --- | --- | --- | --- |
| MAP kinase‐activated protein kinase 5 (MK5), endogenous in HEK 293 cells (from UniProt Q8IW41 1-473) | binds | binds | binds |  |
| eGFP‐MK5 (from pEGFP‐MK5‐C1), overexpressed in HEK 293 cells (from UniProt Q8IW41 1-473) |  | binds | binds |  |
| wild‐type human full‐length TLK1, overexpressed in HEK 293 cells (from UniProt Q9UKI8 1-766) |  |  | binds |  |

Next, values leading:

| binding [1] | binding [2] | binding [3] | binding [4] | Substance |
| --- | --- | --- | --- | --- |
|  |  |  | binds | MAP kinase‐activated protein kinase 5 (MK5), endogenous in LNCaP cells (from UniProt Q8IW41 1-473) |
| binds |  |  |  | tousled‐like kinase 1 (TLK1), endogenous in HEK 293 cells (from UniProt Q9UKI8 1-766) |
